Among the data in the supplement of paper PMC6411743 are NP40-soluble protein abundance values, retold here.

The chains behind the UniProt entries cited, without tags or fusion partners. Where a name states a change or a piece, a line headed by the entry shows the natural chain unless it says otherwise.
UniProt Q9BVT8: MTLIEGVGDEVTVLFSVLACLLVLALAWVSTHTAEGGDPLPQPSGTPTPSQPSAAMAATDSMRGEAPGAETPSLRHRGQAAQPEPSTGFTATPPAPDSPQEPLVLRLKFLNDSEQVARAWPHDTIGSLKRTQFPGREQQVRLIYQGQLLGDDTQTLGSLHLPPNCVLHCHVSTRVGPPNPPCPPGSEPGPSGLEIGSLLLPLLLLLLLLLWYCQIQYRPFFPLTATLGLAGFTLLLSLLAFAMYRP
UniProt Q9GZM5: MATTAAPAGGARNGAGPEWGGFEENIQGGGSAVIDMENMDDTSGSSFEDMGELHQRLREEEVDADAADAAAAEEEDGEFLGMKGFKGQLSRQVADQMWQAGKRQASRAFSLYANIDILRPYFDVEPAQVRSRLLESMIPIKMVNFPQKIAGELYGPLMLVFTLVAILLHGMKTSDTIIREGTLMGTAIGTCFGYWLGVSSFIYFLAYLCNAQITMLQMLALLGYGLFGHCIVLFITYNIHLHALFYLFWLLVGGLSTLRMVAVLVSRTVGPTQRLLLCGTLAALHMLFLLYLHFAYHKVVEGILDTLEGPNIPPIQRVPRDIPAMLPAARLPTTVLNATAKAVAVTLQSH
UniProt Q53HC9: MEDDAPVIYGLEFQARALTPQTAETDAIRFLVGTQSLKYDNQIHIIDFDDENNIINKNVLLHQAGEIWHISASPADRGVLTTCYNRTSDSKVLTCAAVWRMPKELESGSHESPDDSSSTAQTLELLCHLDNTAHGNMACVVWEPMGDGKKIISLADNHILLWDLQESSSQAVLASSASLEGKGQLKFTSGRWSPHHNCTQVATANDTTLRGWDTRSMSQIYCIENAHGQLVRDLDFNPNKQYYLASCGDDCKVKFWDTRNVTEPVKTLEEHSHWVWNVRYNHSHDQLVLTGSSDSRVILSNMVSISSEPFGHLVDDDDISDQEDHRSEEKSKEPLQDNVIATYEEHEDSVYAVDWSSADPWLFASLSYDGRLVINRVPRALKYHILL
UniProt A6NED2: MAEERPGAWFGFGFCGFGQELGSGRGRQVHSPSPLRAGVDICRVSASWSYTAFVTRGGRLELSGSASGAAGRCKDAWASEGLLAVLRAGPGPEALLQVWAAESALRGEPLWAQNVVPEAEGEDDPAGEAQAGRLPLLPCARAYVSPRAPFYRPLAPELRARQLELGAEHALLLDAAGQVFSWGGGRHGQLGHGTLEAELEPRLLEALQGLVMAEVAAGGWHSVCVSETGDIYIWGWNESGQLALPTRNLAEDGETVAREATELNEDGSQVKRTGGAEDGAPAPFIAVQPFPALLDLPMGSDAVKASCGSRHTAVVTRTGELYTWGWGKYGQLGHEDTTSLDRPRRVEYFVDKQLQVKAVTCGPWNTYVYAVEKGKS
UniProt O43772: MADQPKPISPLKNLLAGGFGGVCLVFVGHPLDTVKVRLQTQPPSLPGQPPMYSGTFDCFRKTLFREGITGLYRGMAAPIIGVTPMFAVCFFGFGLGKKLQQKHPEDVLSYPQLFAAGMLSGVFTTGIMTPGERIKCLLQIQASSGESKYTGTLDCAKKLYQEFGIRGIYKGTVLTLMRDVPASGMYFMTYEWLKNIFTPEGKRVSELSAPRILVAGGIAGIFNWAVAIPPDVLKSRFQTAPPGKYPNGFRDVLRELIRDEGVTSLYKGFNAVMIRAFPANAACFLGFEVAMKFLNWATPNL
UniProt Q96D46: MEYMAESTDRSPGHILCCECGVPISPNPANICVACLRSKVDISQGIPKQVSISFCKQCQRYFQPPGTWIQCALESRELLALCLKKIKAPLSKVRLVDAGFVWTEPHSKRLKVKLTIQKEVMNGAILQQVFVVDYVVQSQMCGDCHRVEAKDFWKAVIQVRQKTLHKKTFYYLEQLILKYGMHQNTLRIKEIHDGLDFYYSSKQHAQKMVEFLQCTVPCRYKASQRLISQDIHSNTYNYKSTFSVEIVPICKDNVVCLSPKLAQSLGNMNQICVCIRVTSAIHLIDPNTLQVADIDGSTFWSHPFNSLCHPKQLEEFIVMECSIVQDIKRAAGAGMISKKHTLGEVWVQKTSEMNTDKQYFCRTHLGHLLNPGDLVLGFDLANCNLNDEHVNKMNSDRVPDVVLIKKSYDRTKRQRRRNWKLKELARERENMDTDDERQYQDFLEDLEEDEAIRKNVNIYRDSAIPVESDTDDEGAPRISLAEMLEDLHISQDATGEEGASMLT
UniProt P06454: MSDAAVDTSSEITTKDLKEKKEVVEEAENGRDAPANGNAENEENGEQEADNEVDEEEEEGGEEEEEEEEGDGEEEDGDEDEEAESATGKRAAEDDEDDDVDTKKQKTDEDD
UniProt O60925, whole entry: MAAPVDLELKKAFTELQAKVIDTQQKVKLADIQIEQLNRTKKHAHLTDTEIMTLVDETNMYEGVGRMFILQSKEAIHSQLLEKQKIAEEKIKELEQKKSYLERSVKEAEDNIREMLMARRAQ
UniProt Q9H2H8: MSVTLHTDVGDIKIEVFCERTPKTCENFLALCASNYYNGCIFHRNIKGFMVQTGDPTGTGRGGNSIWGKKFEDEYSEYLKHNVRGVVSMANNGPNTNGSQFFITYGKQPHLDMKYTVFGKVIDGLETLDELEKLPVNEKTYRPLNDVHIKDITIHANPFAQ
UniProt O43572: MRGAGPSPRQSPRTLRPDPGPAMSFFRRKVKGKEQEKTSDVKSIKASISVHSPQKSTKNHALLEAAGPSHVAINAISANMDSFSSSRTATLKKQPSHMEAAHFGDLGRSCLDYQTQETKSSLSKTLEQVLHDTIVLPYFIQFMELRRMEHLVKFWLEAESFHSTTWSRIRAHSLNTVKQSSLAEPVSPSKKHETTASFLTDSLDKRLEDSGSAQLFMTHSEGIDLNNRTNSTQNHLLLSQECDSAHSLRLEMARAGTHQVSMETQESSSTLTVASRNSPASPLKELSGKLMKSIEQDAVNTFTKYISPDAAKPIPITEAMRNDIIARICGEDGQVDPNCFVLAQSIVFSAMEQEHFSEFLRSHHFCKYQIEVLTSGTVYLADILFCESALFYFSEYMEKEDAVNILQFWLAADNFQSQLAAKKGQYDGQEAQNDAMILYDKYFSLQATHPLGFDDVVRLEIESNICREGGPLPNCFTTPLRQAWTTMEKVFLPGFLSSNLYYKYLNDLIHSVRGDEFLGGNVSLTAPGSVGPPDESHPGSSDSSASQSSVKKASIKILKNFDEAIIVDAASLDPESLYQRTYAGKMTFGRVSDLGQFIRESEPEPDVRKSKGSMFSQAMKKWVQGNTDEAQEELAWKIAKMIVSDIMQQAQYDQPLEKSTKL
UniProt O75496: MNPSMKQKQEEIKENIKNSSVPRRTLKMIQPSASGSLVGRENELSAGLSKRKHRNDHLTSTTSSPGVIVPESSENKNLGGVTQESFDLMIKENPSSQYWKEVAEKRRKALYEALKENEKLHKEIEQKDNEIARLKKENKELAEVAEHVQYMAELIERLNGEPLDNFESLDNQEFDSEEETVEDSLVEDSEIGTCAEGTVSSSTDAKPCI
UniProt Q9UJU6: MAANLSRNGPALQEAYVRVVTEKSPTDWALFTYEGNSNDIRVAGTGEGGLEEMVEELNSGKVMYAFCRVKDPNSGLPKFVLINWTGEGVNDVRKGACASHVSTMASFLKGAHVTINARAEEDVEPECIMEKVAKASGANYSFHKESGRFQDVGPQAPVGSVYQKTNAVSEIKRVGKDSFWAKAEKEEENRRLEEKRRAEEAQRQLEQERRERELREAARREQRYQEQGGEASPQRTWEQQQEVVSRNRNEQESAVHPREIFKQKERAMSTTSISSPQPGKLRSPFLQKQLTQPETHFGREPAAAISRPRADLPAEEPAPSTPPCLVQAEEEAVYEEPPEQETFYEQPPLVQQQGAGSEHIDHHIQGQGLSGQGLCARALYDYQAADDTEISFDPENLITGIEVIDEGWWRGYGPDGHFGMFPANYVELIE

Compound in the assay: Nc1nc2c(ncn2[C@@H]2O[C@H](COP(=O)(O)OP(=O)(O)OP(=O)(O)O)[C@@H](O)[C@H]2O)c(=O)[nH]1 [guanosine triphosphate]
Kind of assay: NP40-soluble protein abundance relative to vehicle (solubility fold change) (ratio); higher = more soluble protein in presence of GTP. The method, boiled down:
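Each value is a fold change relative to the detergent-processed vehicle, calculated per replicate from vsn-normalised intensities. Jurkat crude lysate received eight concentrations (0.1 to 10 mM) for 10 min at room temperature and 3 min at 37 °C, then was solubilised in 0.8% NP40 with benzonase (60 min, 4 °C). The ultracentrifuged supernatant was TMT-labelled and run by LC-MS/MS in three independent experiments.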

± gives the standard deviation of the averaged measurements. The list shows a part of the results.

On to “C9JCW7 and related entries (UniProt Q9BVT8)”, for which the NP40-soluble protein abundance is, setting by setting: (concentration: 0.1mM) 0.979 ± 0.088; (concentration: 0.5mM) 0.895 ± 0.089; (concentration: 1mM) 1.01 ± 0.1; (concentration: 2mM) 0.968 ± 0.11; (concentration: 4mM) 0.931 ± 0.065; (concentration: 6mM) 0.983 ± 0.12. Besides, the NP40-soluble protein abundance is, setting by setting: (concentration: 8mM) 0.942 ± 0.055; (concentration: 10mM) 0.932 ± 0.083.
Take “D6RFI3 and related entries (UniProt Q9GZM5)”: the NP40-soluble protein abundance stood at 1.146 ± 0.0073 (concentration: 0.1mM); 1.05 ± 0.047 (concentration: 0.5mM); 1.12 ± 0.083 (concentration: 1mM); 1.013 ± 0.0078 (concentration: 2mM); 0.997 ± 0.09 (concentration: 4mM); 1.02 ± 0.053 (concentration: 6mM). Further, the NP40-soluble protein abundance stood at 1.04 ± 0.085 (concentration: 8mM) and 1.02 ± 0.15 (concentration: 10mM).
With “B1AL05 and related entries (UniProt Q8N983)”, the NP40-soluble protein abundance by setting is: (concentration: 0.1mM) 1.08 ± 0.21; (concentration: 0.5mM) 1.07 ± 0.17; (concentration: 1mM) 1.37 ± 0.45; (concentration: 2mM) 1.75 ± 0.66; (concentration: 4mM) 1.71 ± 0.69; (concentration: 6mM) 1.57 ± 0.65. For the same target, the NP40-soluble protein abundance (concentration: 8mM) was 1.38 ± 0.47 and the NP40-soluble protein abundance (concentration: 10mM) is 1.59 ± 0.65.
For the target “A8MUM1 and related entries (UniProt Q53HC9)”, the NP40-soluble protein abundance (concentration: 0.1mM) came to 1.09 ± 0.13; the NP40-soluble protein abundance (concentration: 0.5mM) was 1.07 ± 0.071; the NP40-soluble protein abundance (concentration: 1mM) was found to be 1.02 ± 0.15; the NP40-soluble protein abundance (concentration: 2mM) stood at 0.979 ± 0.087; the NP40-soluble protein abundance (concentration: 4mM) amounted to 1.03 ± 0.15; the NP40-soluble protein abundance (concentration: 6mM) amounted to 0.985 ± 0.084. Further, the NP40-soluble protein abundance was 0.97 ± 0.13 (concentration: 8mM) and 0.922 ± 0.11 (concentration: 10mM).
Consider UniProt A6NED2 and related entries, for which the NP40-soluble protein abundance runs as follows: (concentration: 0.1mM) 1.05 ± 0.095; (concentration: 0.5mM) 1.042 ± 0.0065; (concentration: 1mM) 1.06 ± 0.026; (concentration: 2mM) 1.09 ± 0.13; (concentration: 4mM) 1.04 ± 0.077; (concentration: 6mM) 1.08 ± 0.094. Also, the NP40-soluble protein abundance is, setting by setting: (concentration: 8mM) 1.009 ± 0.009; (concentration: 10mM) 1.018 ± 0.0084.
Take “C9JPE1 and related entries (UniProt O43772)”: the NP40-soluble protein abundance reads like this: (concentration: 0.1mM) 1.08 ± 0.11; (concentration: 0.5mM) 1.07 ± 0.074; (concentration: 1mM) 0.925 ± 0.066; (concentration: 2mM) 0.951 ± 0.11; (concentration: 4mM) 0.866 ± 0.12; (concentration: 6mM) 0.895 ± 0.089. Besides, the NP40-soluble protein abundance (concentration: 8mM) amounted to 0.859 ± 0.09 and the NP40-soluble protein abundance (concentration: 10mM) was found to be 0.871 ± 0.16.
With “C9JA08 and related entries (UniProt Q96D46)”, the NP40-soluble protein abundance was found to be 1.107 ± 0.00068 (concentration: 0.1mM); 1.1 ± 0.11 (concentration: 0.5mM); 0.975 ± 0.075 (concentration: 1mM); 0.939 ± 0.031 (concentration: 2mM); 0.827 ± 0.067 (concentration: 4mM); 0.874 ± 0.035 (concentration: 6mM). The NP40-soluble protein abundance is, setting by setting: (concentration: 8mM) 0.79 ± 0.12; (concentration: 10mM) 0.777 ± 0.21.
Regarding “B8ZZQ6 and related entries (UniProt P06454)”, the NP40-soluble protein abundance amounted to 1.069 ± 0.0068 (concentration: 0.1mM); 0.988 ± 0.015 (concentration: 0.5mM); 0.987 ± 0.036 (concentration: 1mM); 0.946 ± 0.07 (concentration: 2mM); 0.948 ± 0.063 (concentration: 4mM); 0.988 ± 0.022 (concentration: 6mM). The NP40-soluble protein abundance came out at 1.12 ± 0.1 (concentration: 8mM) and 1.05 ± 0.085 (concentration: 10mM).
For the target “E5RGS4 and related entries (UniProt O60925)”, the NP40-soluble protein abundance by setting is: (concentration: 0.1mM) 0.995 ± 0.059; (concentration: 0.5mM) 0.957 ± 0.11; (concentration: 1mM) 1.01 ± 0.11; (concentration: 2mM) 0.893 ± 0.1; (concentration: 4mM) 0.898 ± 0.12; (concentration: 6mM) 0.927 ± 0.13. Also, the NP40-soluble protein abundance is, setting by setting: (concentration: 8mM) 0.92 ± 0.1; (concentration: 10mM) 0.904 ± 0.086.
As for “B8ZZ77 and related entries (UniProt Q9H2H8)”, the NP40-soluble protein abundance (concentration: 0.1mM) is 0.966 ± 0.1; the NP40-soluble protein abundance (concentration: 0.5mM) came out at 0.96 ± 0.098; the NP40-soluble protein abundance (concentration: 1mM) amounted to 0.927 ± 0.1; the NP40-soluble protein abundance (concentration: 2mM) stood at 0.913 ± 0.11; the NP40-soluble protein abundance (concentration: 4mM) turned out to be 0.934 ± 0.17; the NP40-soluble protein abundance (concentration: 6mM) is 0.913 ± 0.12. Also, the NP40-soluble protein abundance (concentration: 8mM) came to 0.937 ± 0.14 and the NP40-soluble protein abundance (concentration: 10mM) worked out at 0.91 ± 0.088.
In the case of “E7EMD6 and related entries (UniProt O43572)”, the NP40-soluble protein abundance worked out at 0.999 ± 0.048 (concentration: 0.1mM); 0.99 ± 0.069 (concentration: 0.5mM); 0.965 ± 0.037 (concentration: 1mM); 0.953 ± 0.089 (concentration: 2mM); 0.996 ± 0.038 (concentration: 4mM); 0.931 ± 0.071 (concentration: 6mM). In addition, the NP40-soluble protein abundance reads like this: (concentration: 8mM) 0.926 ± 0.048; (concentration: 10mM) 0.903 ± 0.02.
For “E2QRF9 and related entries (UniProt O75496)”, the NP40-soluble protein abundance by setting is: (concentration: 0.1mM) 0.934 ± 0.055; (concentration: 0.5mM) 0.945 ± 0.053; (concentration: 1mM) 0.974 ± 0.054; (concentration: 2mM) 0.952 ± 0.065; (concentration: 4mM) 0.949 ± 0.079; (concentration: 6mM) 0.949 ± 0.042. The NP40-soluble protein abundance (concentration: 8mM) turned out to be 0.986 ± 0.06 and the NP40-soluble protein abundance (concentration: 10mM) is 1.01 ± 0.069.
Consider “B4DDD6 and related entries (UniProt Q9UJU6)”, for which the NP40-soluble protein abundance (concentration: 0.1mM) stood at 0.964 ± 0.045; the NP40-soluble protein abundance (concentration: 0.5mM) is 0.946 ± 0.049; the NP40-soluble protein abundance (concentration: 1mM) turned out to be 0.931 ± 0.054; the NP40-soluble protein abundance (concentration: 2mM) worked out at 0.87 ± 0.044; the NP40-soluble protein abundance (concentration: 4mM) was 0.875 ± 0.06; the NP40-soluble protein abundance (concentration: 6mM) was determined as 0.865 ± 0.047. Also, the NP40-soluble protein abundance was 0.881 ± 0.076 (concentration: 8mM) and 0.849 ± 0.078 (concentration: 10mM).
